# Assay results as given in PubChem BioAssay AID330 (DTP/NCI, 2004).
# The list shows only some results of the screen, not a fair sample: it gathers tests that were run many times, whatever their T/C, doses with no T/C, and many T/C values between a quarter and a half above the control. Other doses and runs of a compound stand elsewhere. T/C: endpoint of the treated group in % of that of the vehicle group. Some doses have a count of surviving animals in place of a T/C: the source holds a T/C of zero for them, seemingly a mark for toxic or unscored doses. Some survivor counts are full or nearly so, which does not show that the dose was tolerated: survival well below the control is almost never listed, so the zero probably covers shortened survival too. Counts of survivors are from the toxicity check (mostly the fifth day) where no day follows; animals may have died later. Schedules are NCI's codes, read here as Q, the interval in days (D) or hours (H), X, the number of doses. Some entries hold several experiments; their values stand side by side, smallest first. Marks such as (2×) give the number of equal values in this list. Where survival is the endpoint, this PubChem deposit counts one and a half times the control or more as active, and values a quarter to a half above the control carry no call in these data; other NCI protocols may use other cut-offs. Some T/C values are followed by the survivors on the day toxicity was checked, most often the fifth; without a count, all were alive then.
# Tested on: P388 leukemia ip, CD2F1 mice, survival T/C
# Assay: NCI In Vivo Anticancer Drug Screen. Data for tumor model P388 Leukemia (intraperitoneal) in CD2F1 (CDF1) mice
# Conditions: T/C endpoint: median survival time, higher T/C = longer survival
# [1] = dose: 200.0 mg/kg/injection, schedule: Q01DX005 (ip), vehicle: saline
# [2] = dose: 200.0 mg/kg/injection, schedule: Q01DX009 (ip), vehicle: saline
# [3] = dose: 120.0 mg/kg/injection, schedule: Q01DX005 (ip), vehicle: saline with Tween-80
# [4] = dose: 50.0 mg/kg/injection, schedule: Q01DX009 (ip), vehicle: saline with Tween-80
# [5] = dose: 100.0 mg/kg/injection, schedule: Q01DX009 (ip), vehicle: Klucel (hydroxypropylcellulose) (HPC)
# [6] = dose: 50.0 mg/kg/injection, schedule: Q01DX009 (ip), vehicle: Klucel (hydroxypropylcellulose) (HPC)
# [7] = dose: 200.0 mg/kg/injection, schedule: Q01DX005 (ip), vehicle: Klucel (hydroxypropylcellulose) (HPC)
structure (smiles),measurement,setting,value
CCN(CC)CCOC(=O)Cc1cccc2c(=O)cc(-c3ccccc3)oc12,T/C,"dose: 50.0 mg/kg/injection, schedule: Q01DX009 (ip), vehicle: saline, evaluated on day 20",106 % of control
same,T/C,"dose: 50.0 mg/kg/injection, schedule: Q01DX009 (ip), vehicle: saline, evaluated on day 30",96 and 113 % of control
same,T/C,"dose: 50.0 mg/kg/injection, schedule: Q01DX009 (ip), vehicle: saline, evaluated on day 60",99 % of control
same,T/C,"dose: 100.0 mg/kg/injection, schedule: Q01DX009 (ip), vehicle: saline, evaluated on day 20",117 % of control
same,T/C,"dose: 100.0 mg/kg/injection, schedule: Q01DX009 (ip), vehicle: saline, evaluated on day 30",111 and 138 % of control
same,T/C,"dose: 100.0 mg/kg/injection, schedule: Q01DX009 (ip), vehicle: saline, evaluated on day 60",118 % of control
same,T/C,[1],131 % of control
same,T/C,[2],194 % of control
same,survivor count,[2],2 of 6 (2×) and 9 of 10
same,T/C,"dose: 200.0 mg/kg/injection, schedule: Q04DX003 (ip), vehicle: saline",131 % of control [9 of 10 alive]
same,survivor count,"dose: 300.0 mg/kg/injection, schedule: Q01DX005 (ip), vehicle: saline",1 of 10
same,survivor count,"dose: 300.0 mg/kg/injection, schedule: Q01DX009 (ip), vehicle: saline",1 of 10
same,survivor count,"dose: 300.0 mg/kg/injection, schedule: Q04DX003 (ip), vehicle: saline",3 of 10
CCCCCCCC(Nc1nncs1)Nc1nncs1,survivor count,[3],6 of 6
BrCC1C[n+]2c(cc(-c3ccccc3)cc2-c2ccccc2)S1 (centres undefined),survivor count,"dose: 15.0 mg/kg/injection, schedule: Q01DX005 (ip), vehicle: Klucel (hydroxypropylcellulose) (HPC)",0 of 6
same,survivor count,"dose: 60.0 mg/kg/injection, schedule: Q01DX005 (ip), vehicle: Klucel (hydroxypropylcellulose) (HPC)",0 of 6
same,survivor count,"dose: 120.0 mg/kg/injection, schedule: Q01DX005 (ip), vehicle: Klucel (hydroxypropylcellulose) (HPC)",0 of 6
same,survivor count,"dose: 240.0 mg/kg/injection, schedule: Q01DX005 (ip), vehicle: Klucel (hydroxypropylcellulose) (HPC)",0 of 6
O=C1c2ccccc2C(Cl)=C(Cl)C1(Cl)Cl,survivor count,[4],4 of 6
COc1cccc2c1C(=O)c1c(O)c3c(c(O)c1C2=O)CC(O)(/C(C)=N/NC(=O)CCC(=O)N/N=C(\C)C1(O)Cc2c(O)c4c(c(O)c2C(OC2CC(N(C)C)C(O)C(C)O2)C1)C(=O)c1c(OC)cccc1C4=O)CC3OC1CC(N(C)C)C(O)C(C)O1 (centres undefined),T/C,"dose: 1.0 mg/kg/injection, schedule: Q01DX009 (ip), vehicle: water",139 % of control
same,T/C,"dose: 2.0 mg/kg/injection, schedule: Q01DX009 (ip), vehicle: water",143 % of control
same,survivor count,"dose: 16.0 mg/kg/injection, schedule: Q01DX009 (ip), vehicle: water",6 of 6
same,survivor count,"dose: 32.0 mg/kg/injection, schedule: Q01DX009 (ip), vehicle: water",2 of 3 and 6 of 6
CCC(Cl)C#N (centres undefined),survivor count,"dose: 30.0 mg/kg/injection, schedule: Q01DX005 (ip), vehicle: saline with Tween-80",0 of 6
same,survivor count,"dose: 60.0 mg/kg/injection, schedule: Q01DX005 (ip), vehicle: saline with Tween-80",0 of 6
same,survivor count,[3],0 of 6
same,survivor count,"dose: 240.0 mg/kg/injection, schedule: Q01DX005 (ip), vehicle: saline with Tween-80",0 of 6
CCCCN(CCCC)CCNc1ccc(C)c2sc3ccc(Cl)cc3c(=O)c12,survivor count,"dose: 50.0 mg/kg/injection, schedule: Q01DX005 (ip), vehicle: saline with Tween-80",5 of 5
same,survivor count,"dose: 100.0 mg/kg/injection, schedule: Q01DX005 (ip), vehicle: saline with Tween-80",5 of 5
same,survivor count,"dose: 200.0 mg/kg/injection, schedule: Q01DX005 (ip), vehicle: saline with Tween-80",5 of 5
COc1ccc2cc1-c1cc(ccc1O)CCC(O)CC1CCCC(CC(O)CC2)N1 (centres undefined),survivor count,"dose: 60.0 mg/kg/injection, schedule: Q01DX009 (ip), vehicle: Klucel (hydroxypropylcellulose) (HPC)",5 of 6
same,survivor count,"dose: 120.0 mg/kg/injection, schedule: Q01DX009 (ip), vehicle: Klucel (hydroxypropylcellulose) (HPC)",0 of 6
CCCCN(CCCC)CC(O)c1c(Oc2ccccc2)c2ccccc2c2ccccc12 (centres undefined),survivor count,"dose: 25.0 mg/kg/injection, schedule: Q01DX009 (ip), vehicle: saline with Tween-80",6 of 6
same,survivor count,[4],5 of 6
same,survivor count,"dose: 100.0 mg/kg/injection, schedule: Q01DX009 (ip), vehicle: saline with Tween-80",6 of 6
Cc1cc(C)c(S(=O)(=O)Sc2nnnn2C)c(C)c1,survivor count,[5],3 of 6
CCc1ccc2nc3ccccc3c(NCCCCCCNc3c4ccccc4nc4ccc(CC)cc34)c2c1,survivor count,"dose: 20.0 mg/kg/injection, schedule: Q01DX009 (ip), vehicle: other",1 of 6
O=C(O)C1CSC(c2ccc(Cl)cc2)N1 (centres undefined),survivor count,"dose: 50.0 mg/kg/injection, schedule: Q01DX009 (ip), vehicle: suspension in saline",6 of 6
same,survivor count,"dose: 100.0 mg/kg/injection, schedule: Q01DX009 (ip), vehicle: suspension in saline",6 of 6
Cc1[nH]c(C)c(Br)c(=O)c1F,survivor count,[6],3 of 6
same,survivor count,[5],0 of 6
same,survivor count,"dose: 200.0 mg/kg/injection, schedule: Q01DX009 (ip), vehicle: Klucel (hydroxypropylcellulose) (HPC)",0 of 6
CN=C(NC)c1ccc(NC(=O)c2cc(Cl)cc(C(=O)Nc3ccc(C(=NC)NC)cc3)c2)cc1,survivor count,"dose: 50.0 mg/kg/injection, schedule: Q01DX005 (ip), vehicle: saline",0 of 6
same,survivor count,"dose: 100.0 mg/kg/injection, schedule: Q01DX005 (ip), vehicle: saline",0 of 6
same,survivor count,[1],0 of 6
CC1CC(C)(O)CC(C(O)CC2CC(=O)NC(=O)C2)C1=O (centres undefined),T/C,"dose: 77.8 micrograms/kg/injection, schedule: Q01DX009 (ip), vehicle: saline",140 % of control
same,T/C,"dose: 130.0 micrograms/kg/injection, schedule: Q01DX009 (ip), vehicle: saline",138 and 141 % of control
same,survivor count,"dose: 360.0 micrograms/kg/injection, schedule: Q01DX009 (ip), vehicle: saline",8 of 8
same,T/C,"dose: 467.0 micrograms/kg/injection, schedule: Q04DX003 (ip), vehicle: saline",131 % of control
same,survivor count,"dose: 600.0 micrograms/kg/injection, schedule: Q01DX009 (ip), vehicle: saline",7 of 8 and 8 of 8
same,T/C,"dose: 778.0 micrograms/kg/injection, schedule: Q04DX003 (ip), vehicle: saline",135 % of control
same,T/C,"dose: 1300.0 micrograms/kg/injection, schedule: Q04DX003 (ip), vehicle: saline",134 % of control
same,T/C,"dose: 2160.0 micrograms/kg/injection, schedule: Q04DX003 (ip), vehicle: saline",149 % of control
same,T/C,"dose: 3600.0 micrograms/kg/injection, schedule: Q04DX003 (ip), vehicle: saline",144 % of control [7 of 8 alive]
CC(=O)NC(=O)CCCCCCC(=O)NC(C)=O,survivor count,"dose: 100.0 mg/kg/injection, schedule: Q01DX005 (ip), vehicle: Klucel (hydroxypropylcellulose) (HPC)",6 of 6
same,survivor count,[7],6 of 6
same,survivor count,"dose: 400.0 mg/kg/injection, schedule: Q01DX005 (ip), vehicle: Klucel (hydroxypropylcellulose) (HPC)",5 of 6
OC1c2ccccc2-c2nc3ccccc3cc21 (centres undefined),survivor count,[7],6 of 6
CN(C)CCN(C)CCC(=O)/C=C/c1ccccc1,survivor count,"dose: 100.0 mg/kg/injection, schedule: Q01DX001 (ip), vehicle: saline",0 of 6
same,survivor count,"dose: 200.0 mg/kg/injection, schedule: Q01DX001 (ip), vehicle: saline",0 of 6
same,survivor count,"dose: 400.0 mg/kg/injection, schedule: Q01DX001 (ip), vehicle: saline",0 of 6
COC1/C=C/OC2(C)Oc3c(C)c(O)c4c(c3C2=O)C(=O)C([N+](=O)[O-])=C(NC(=O)C(C)=C/C=C\C(C)C(O)C(C)C(O)C(C)C(OC(C)=O)C1C)C4=O (centres undefined),survivor count,"dose: 25.0 mg/kg/injection, schedule: Q01DX009 (ip), vehicle: Klucel (hydroxypropylcellulose) (HPC)",6 of 6
same,survivor count,[6],6 of 6
Cc1cc(=O)c2ccccc2s1,survivor count,"dose: 200.0 mg/kg/injection, schedule: Q01DX009 (ip), vehicle: saline with Tween-80",3 of 6
